Results taken from patent US6974671B1, “Methods for indentifying compounds that modulate gluconeogenesis through the binding of CREB to the PGC-1 promoter” (Salk Institute for Biological Studies, priority 2001, dated 2005).
At least one compound was matched to its structure with a doubt left.

Tested on: PEPCK promoter
Test: Transient assay of HepG2 cells with PEPCK luciferase reporter
Format: cell-based, human
Settings: HepG2, -490 PEPCK, treatment alone
Text: Plasmids. Expression plasmids pZEO-ACREB^22 and pcDNA3-PGC-1^24 have been described previously. Liver specific A-CREB transgene was constructed by inserting A-CREB cDNA into a liver specific albumin promoter/enhancer plasmid^5. To construct luciferase expression plasmids −490PEPCKLuc and −355PEPCKLuc BamHI/BglII fragments of the PEPCK promoter region containing 490 or 355 bp of the mouse PEPCK 5′-flanking region, respectively, were cloned into the pGL3 basic luciferase reporter vector (Promega, St. Luis Obispo). PGC-1 reporter mPGCLuc was constructed by inserting a […] fragment of the mouse PGC-1 promoter containing 170 bp of the 5′-flanking region and 68 bp of Exon 1 into the pGL3 vector.
Cell culture and transient transfection assays. Human hepatoma HepG2 cells were transfected using the Lipofectamine 2000 reagent (GIBCO BRL) according to manufacturers instructions (500 ng of indicator plasmid/well). Where indicated, expression plasmids encoding A-CREB (pZeo-ACREB)^22 or PGC-1 (pcDNA3-PGC-1)^24 were cotransfected (50 ng or 800 ng plasmid/well, respectively). Cotransfections were performed with a constant DNA amount by adding the empty pcDNA3 vector (Invitrogen). Cells were treated with Forskolin (10 μM) and/or Dexamethasone (100 nM) or insulin (10 nM) for 14 h. […]

Question: `C[C@@H]1C[C@H]2[C@@H]3CCC4=CC(=O)C=C[C@]4(C)[C@@]3(F)[C@@H](O)C[C@]2(C)[C@@]1(O)C(=O)CO` [Dexamethasone] was tested. Which “effect on PEPCK promoter activity, alone” value did it give?
Answer: The value was “little effect”.
